Measurements: the supplement of paper PMC7661543
± gives the standard deviation of the averaged measurements. The effect of the compound repeats well; differences between the knockouts mostly do not.

System: BT-20
Experiment: relative cell number vs DMSO control (72 h) (% of DMSO); higher = less growth inhibition (more cells)
Description: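 QMAP-Seq: a pool of 5 breast cancer cell lines (ZR-75-1, SKBR3, HCC-38, MDA-MB-231, BT-20), each carrying 12 doxycycline-inducible Cas9 sgRNA perturbations (11 knockouts plus non-targeting sgNT), was treated with compounds for 72 h at four 10-fold doses (10 nM-10 uM or 1 nM-1 uM range). Barcodes were amplified and sequenced, and cell number was interpolated from 293T spike-in standard curves. The result is expressed as % of the median of DMSO wells. Two biological replicates.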

Cc1ccc(C(=O)Cn2c3c(sc2=N)CCCC3)cc1 [PifithrinAlpha]
Details | relative cell number
sgRNA knockout: sgATF3, 10 nM | 101 ± 17
sgRNA knockout: sgATF3, 100 nM | 111 ± 1.6
sgRNA knockout: sgATF3, 1000 nM | 86.4 ± 9.1
sgRNA knockout: sgATF3, 10000 nM | 89.1 ± 8.5
sgRNA knockout: sgATF4, 10 nM | 103 ± 19
sgRNA knockout: sgATF4, 100 nM | 116 ± 16
sgRNA knockout: sgATF4, 1000 nM | 110 ± 20
sgRNA knockout: sgATF4, 10000 nM | 86.3 ± 7.8
sgRNA knockout: sgATF6, 10 nM | 97.7 ± 3.6
sgRNA knockout: sgATF6, 100 nM | 100 ± 22
sgRNA knockout: sgATF6, 1000 nM | 101 ± 22
sgRNA knockout: sgATF6, 10000 nM | 83.4 ± 17
sgRNA knockout: sgATG7, 10 nM | 105 ± 8.7
sgRNA knockout: sgATG7, 100 nM | 94.2 ± 2.5
sgRNA knockout: sgATG7, 1000 nM | 107 ± 18
sgRNA knockout: sgATG7, 10000 nM | 82.6 ± 13
sgRNA knockout: sgERN1, 10 nM | 92.3 ± 6.2
sgRNA knockout: sgERN1, 100 nM | 105 ± 13
sgRNA knockout: sgERN1, 1000 nM | 110 ± 5
sgRNA knockout: sgERN1, 10000 nM | 83.5 ± 1
sgRNA knockout: sgHSF1, 10 nM | 94.3 ± 7.9
sgRNA knockout: sgHSF1, 100 nM | 96.2 ± 3.1
sgRNA knockout: sgHSF1, 1000 nM | 94.3 ± 6.1
sgRNA knockout: sgHSF1, 10000 nM | 86.9 ± 9.9
sgRNA knockout: sgHSF2, 10 nM | 108 ± 3.6
sgRNA knockout: sgHSF2, 100 nM | 94 ± 6.6
sgRNA knockout: sgHSF2, 1000 nM | 89.1 ± 0.62
sgRNA knockout: sgHSF2, 10000 nM | 75 ± 9.6
sgRNA knockout: sgKEAP1, 10 nM | 91.2 ± 5.7
sgRNA knockout: sgKEAP1, 100 nM | 89.8 ± 1.2
sgRNA knockout: sgKEAP1, 1000 nM | 97.7 ± 7.5
sgRNA knockout: sgKEAP1, 10000 nM | 84.39 ± 0.27
sgRNA knockout: sgNFE2L2, 10 nM | 108 ± 19
sgRNA knockout: sgNFE2L2, 100 nM | 85.9 ± 18
sgRNA knockout: sgNFE2L2, 1000 nM | 101 ± 11
sgRNA knockout: sgNFE2L2, 10000 nM | 86.4 ± 7.2
sgRNA knockout: sgSLC35F2, 10 nM | 119 ± 14
sgRNA knockout: sgSLC35F2, 100 nM | 104 ± 16
sgRNA knockout: sgSLC35F2, 1000 nM | 112 ± 27
sgRNA knockout: sgSLC35F2, 10000 nM | 79.4 ± 8.9
sgRNA knockout: sgXBP1, 10 nM | 108.1 ± 0.13
sgRNA knockout: sgXBP1, 100 nM | 102 ± 8.7
sgRNA knockout: sgXBP1, 1000 nM | 114 ± 19
sgRNA knockout: sgXBP1, 10000 nM | 87.5 ± 15

COc1cc(OC)c(/C=C/S(=O)(=O)Cc2ccc(OC)c(NCC(=O)O)c2)c(OC)c1 [Rigosertib]
Details | relative cell number
sgRNA knockout: sgATF3, 10 nM | 104 ± 10
sgRNA knockout: sgATF3, 100 nM | 62.7 ± 3.2
sgRNA knockout: sgATF3, 1000 nM | 28.8 ± 11
sgRNA knockout: sgATF3, 10000 nM | 30.3 ± 9.4
sgRNA knockout: sgATF4, 10 nM | 96.6 ± 7
sgRNA knockout: sgATF4, 100 nM | 63.8 ± 6.7
sgRNA knockout: sgATF4, 1000 nM | 38.2 ± 1.4
sgRNA knockout: sgATF4, 10000 nM | 33.8 ± 3.7
sgRNA knockout: sgATF6, 10 nM | 98.6 ± 12
sgRNA knockout: sgATF6, 100 nM | 57.8 ± 4.7
sgRNA knockout: sgATF6, 1000 nM | 32 ± 10
sgRNA knockout: sgATF6, 10000 nM | 32.6 ± 3.6
sgRNA knockout: sgATG7, 10 nM | 85.2 ± 5.9
sgRNA knockout: sgATG7, 100 nM | 58.63 ± 0.28
sgRNA knockout: sgATG7, 1000 nM | 36.7 ± 11
sgRNA knockout: sgATG7, 10000 nM | 34.3 ± 4.4
sgRNA knockout: sgERN1, 10 nM | 85.3 ± 4.7
sgRNA knockout: sgERN1, 100 nM | 68 ± 4.5
sgRNA knockout: sgERN1, 1000 nM | 31.4 ± 4.7
sgRNA knockout: sgERN1, 10000 nM | 31.8 ± 1.9
sgRNA knockout: sgHSF1, 10 nM | 91.1 ± 25
sgRNA knockout: sgHSF1, 100 nM | 70.6 ± 6.8
sgRNA knockout: sgHSF1, 1000 nM | 25.76 ± 0.12
sgRNA knockout: sgHSF1, 10000 nM | 34.2 ± 4.2
sgRNA knockout: sgHSF2, 10 nM | 82.8 ± 14
sgRNA knockout: sgHSF2, 100 nM | 57.5 ± 5.8
sgRNA knockout: sgHSF2, 1000 nM | 34.4 ± 6.2
sgRNA knockout: sgHSF2, 10000 nM | 29.8 ± 0.65
sgRNA knockout: sgKEAP1, 10 nM | 93.5 ± 12
sgRNA knockout: sgKEAP1, 100 nM | 55 ± 0.41
sgRNA knockout: sgKEAP1, 1000 nM | 31.5 ± 0.96
sgRNA knockout: sgKEAP1, 10000 nM | 33.8 ± 8.1
sgRNA knockout: sgNFE2L2, 10 nM | 83.4 ± 7.3
sgRNA knockout: sgNFE2L2, 100 nM | 63.5 ± 4
sgRNA knockout: sgNFE2L2, 1000 nM | 33 ± 2.6
sgRNA knockout: sgNFE2L2, 10000 nM | 34.4 ± 1.2
sgRNA knockout: sgSLC35F2, 10 nM | 93.1 ± 12
sgRNA knockout: sgSLC35F2, 100 nM | 65 ± 2.1
sgRNA knockout: sgSLC35F2, 1000 nM | 41 ± 4.7
sgRNA knockout: sgSLC35F2, 10000 nM | 37.4 ± 3.1
sgRNA knockout: sgXBP1, 10 nM | 102 ± 5.8
sgRNA knockout: sgXBP1, 100 nM | 62.6 ± 7.7
sgRNA knockout: sgXBP1, 1000 nM | 35.1 ± 2.8
sgRNA knockout: sgXBP1, 10000 nM | 39.7 ± 5.7

CCc1c2c(nc3ccc(O)cc13)-c1cc3c(c(=O)n1C2)COC(=O)[C@]3(O)CC [SN38]
Details | relative cell number
sgRNA knockout: sgATF3, 1 nM | 96 ± 11
sgRNA knockout: sgATF3, 10 nM | 79.5 ± 15
sgRNA knockout: sgATF3, 100 nM | 38.7 ± 4.2
sgRNA knockout: sgATF3, 1000 nM | 32.1 ± 6.6
sgRNA knockout: sgATF4, 1 nM | 98.6 ± 22
sgRNA knockout: sgATF4, 10 nM | 96.2 ± 16
sgRNA knockout: sgATF4, 100 nM | 41.4 ± 12
sgRNA knockout: sgATF4, 1000 nM | 28.8 ± 2
sgRNA knockout: sgATF6, 1 nM | 86.8 ± 11
sgRNA knockout: sgATF6, 10 nM | 72.1 ± 1
sgRNA knockout: sgATF6, 100 nM | 37.4 ± 6.6
sgRNA knockout: sgATF6, 1000 nM | 33.7 ± 3.9
sgRNA knockout: sgATG7, 1 nM | 108 ± 13
sgRNA knockout: sgATG7, 10 nM | 80.1 ± 4.5
sgRNA knockout: sgATG7, 100 nM | 39.9 ± 1.1
sgRNA knockout: sgATG7, 1000 nM | 32 ± 17
sgRNA knockout: sgERN1, 1 nM | 97.9 ± 19
sgRNA knockout: sgERN1, 10 nM | 84 ± 0.91
sgRNA knockout: sgERN1, 100 nM | 38.1 ± 9.5
sgRNA knockout: sgERN1, 1000 nM | 28 ± 6.2
sgRNA knockout: sgHSF1, 1 nM | 85.6 ± 9.1
sgRNA knockout: sgHSF1, 10 nM | 81.7 ± 5.1
sgRNA knockout: sgHSF1, 100 nM | 43.6 ± 2.5
sgRNA knockout: sgHSF1, 1000 nM | 29.5 ± 2.1
sgRNA knockout: sgHSF2, 1 nM | 79.3 ± 13
sgRNA knockout: sgHSF2, 10 nM | 80 ± 14
sgRNA knockout: sgHSF2, 100 nM | 41.8 ± 18
sgRNA knockout: sgHSF2, 1000 nM | 28.3 ± 3
sgRNA knockout: sgKEAP1, 1 nM | 99.5 ± 4.9
sgRNA knockout: sgKEAP1, 10 nM | 83.1 ± 15
sgRNA knockout: sgKEAP1, 100 nM | 43.4 ± 3.6
sgRNA knockout: sgKEAP1, 1000 nM | 33 ± 5.9
sgRNA knockout: sgNFE2L2, 1 nM | 105 ± 1.1
sgRNA knockout: sgNFE2L2, 10 nM | 68.7 ± 12
sgRNA knockout: sgNFE2L2, 100 nM | 36.4 ± 12
sgRNA knockout: sgNFE2L2, 1000 nM | 33.7 ± 12
sgRNA knockout: sgSLC35F2, 1 nM | 85.7 ± 9.2
sgRNA knockout: sgSLC35F2, 10 nM | 71.8 ± 5.5
sgRNA knockout: sgSLC35F2, 100 nM | 37.6 ± 5.4
sgRNA knockout: sgSLC35F2, 1000 nM | 31.1 ± 9.8
sgRNA knockout: sgXBP1, 1 nM | 107 ± 8.1
sgRNA knockout: sgXBP1, 10 nM | 82 ± 0.87
sgRNA knockout: sgXBP1, 100 nM | 32.3 ± 3.5
sgRNA knockout: sgXBP1, 1000 nM | 32.3 ± 4.5
